# Measurements from patent US20230301998A1, “METHODS AND COMPOSITIONS FOR INDUCTION OF ANTITUMOR IMMUNITY” (Sanford Burnham Prebys Medical Discovery Institute, priority 2020, published 2023).
# Chains of the proteins cited; added tags and fusions are not shown. Residues count along the entry.
# UniProt P06396, residues 52-782: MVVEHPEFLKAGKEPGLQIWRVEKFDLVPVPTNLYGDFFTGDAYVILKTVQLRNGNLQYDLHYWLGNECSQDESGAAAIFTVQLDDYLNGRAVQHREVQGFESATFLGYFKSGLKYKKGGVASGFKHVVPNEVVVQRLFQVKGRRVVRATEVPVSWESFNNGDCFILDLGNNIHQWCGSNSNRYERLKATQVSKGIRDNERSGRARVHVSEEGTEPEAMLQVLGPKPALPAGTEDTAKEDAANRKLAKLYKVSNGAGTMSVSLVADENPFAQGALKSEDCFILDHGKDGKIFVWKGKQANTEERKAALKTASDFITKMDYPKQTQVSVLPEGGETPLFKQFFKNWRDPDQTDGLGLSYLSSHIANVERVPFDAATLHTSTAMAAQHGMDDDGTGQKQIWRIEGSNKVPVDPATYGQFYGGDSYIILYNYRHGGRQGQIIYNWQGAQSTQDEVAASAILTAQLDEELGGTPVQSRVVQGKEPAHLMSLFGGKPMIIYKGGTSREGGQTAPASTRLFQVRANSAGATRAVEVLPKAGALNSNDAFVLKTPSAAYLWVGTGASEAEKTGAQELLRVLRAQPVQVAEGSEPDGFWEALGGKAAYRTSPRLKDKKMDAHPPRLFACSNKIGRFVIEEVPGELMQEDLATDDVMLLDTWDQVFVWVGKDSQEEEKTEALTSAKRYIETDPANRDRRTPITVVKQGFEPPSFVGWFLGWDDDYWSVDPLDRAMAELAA
# Results are given in words; binding and its absence hold for the method and conditions named. Some binding calls cover weakened binding; strength is not graded here. Tags and fused reporters may be left off the sequences shown.
# Target: T1, Flag-tagged SHARPIN (human) (UniProt Q9H0F6)
# T1 sequence (looked up): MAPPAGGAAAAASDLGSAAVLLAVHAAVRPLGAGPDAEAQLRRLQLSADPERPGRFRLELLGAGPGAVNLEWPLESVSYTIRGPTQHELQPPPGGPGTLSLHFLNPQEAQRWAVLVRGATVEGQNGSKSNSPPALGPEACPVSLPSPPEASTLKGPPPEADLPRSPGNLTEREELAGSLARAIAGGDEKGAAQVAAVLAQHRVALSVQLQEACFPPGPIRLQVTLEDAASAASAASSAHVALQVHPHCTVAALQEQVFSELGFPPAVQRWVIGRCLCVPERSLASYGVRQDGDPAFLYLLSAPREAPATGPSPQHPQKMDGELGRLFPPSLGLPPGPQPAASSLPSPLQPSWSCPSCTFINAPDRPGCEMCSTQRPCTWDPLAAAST
# Experiment: Flag IP of Flag-SHARPIN from WM115 lysate, on-bead tryptic digestion, LC/MS-MS
substance,measurement,value
GSN (from UniProt P06396 52-782),binding,binds
